Measurements as given in PubChem BioAssay AID248 (DTP/NCI, 2004).
The list does not hold the whole screen: it is rich in T/C values a quarter to a half above the control, in often repeated tests (any T/C) and in doses without a T/C. Other doses and runs of a compound stand elsewhere. T/C is the treated group as % of the vehicle group. Some doses have a count of surviving animals in place of a T/C: the source files T/C as zero there, which appears to mark a toxic dose or a test without result, not a measured value. Some doses without a T/C left all or most animals alive at the check, yet need not have been tolerated: the source hardly ever lists a survival T/C far under the control, and the zero likely stands for such cases as well. Survivors were counted at the toxicity check, usually on the fifth day, unless a day is given; later deaths do not show. Schedule codes are those of the source, read here as Q, the interval in days (D) or hours (H), X, the number of doses. Some schedule codes hold Z or #, which are not explained here. For survival time, this PubChem deposit counts one and a half times the control or more as active, and values a quarter to a half above the control carry no call in these data; other NCI protocols may use other cut-offs.

Tested on: L1210 leukemia ip in BDF1 mice, survival T/C
Test: NCI In Vivo Anticancer Drug Screen. Data for tumor model L1210 Leukemia (intraperitoneal) in B6D2F1 (BDF1) mice
Details: T/C endpoint: mean survival time, higher T/C = longer survival
[1] = dose: 200.0 mg/kg/injection, schedule: Q01DX001 (ip), vehicle: saline
[2] = dose: 400.0 mg/kg/injection, schedule: Q01DX001 (ip), vehicle: saline
[3] = dose: 200.0 mg/kg/injection, schedule: Q01DX009 (ip), vehicle: saline with Tween-80
[4] = dose: 200.0 mg/kg/injection, schedule: Q04DX003 (ip), vehicle: saline with Tween-80
[5] = dose: 400.0 mg/kg/injection, schedule: Q04DX003 (ip), vehicle: saline with Tween-80
[6] = dose: 100.0 mg/kg/injection, schedule: Q01DX001 (ip), vehicle: other
[7] = dose: 100.0 mg/kg/injection, schedule: Q04DX003 (ip), vehicle: saline with Tween-80
[8] = dose: 200.0 mg/kg/injection, schedule: Q01DX001 (ip), vehicle: other
[9] = dose: 400.0 mg/kg/injection, schedule: Q01DX001 (ip), vehicle: other
[10] = dose: 400.0 mg/kg/injection, schedule: Q01DX009 (ip), vehicle: Klucel (hydroxypropylcellulose) (HPC)
[11] = dose: 400.0 mg/kg/injection, schedule: Q01DX009 (ip), vehicle: saline with Tween-80
[12] = dose: 400.0 mg/kg/injection, schedule: Q04DX003 (ip), vehicle: saline
[13] = dose: 400.0 mg/kg/injection, schedule: Q04DX003 (ip), vehicle: Klucel (hydroxypropylcellulose) (HPC)
[14] = dose: 200.0 mg/kg/injection, schedule: Q04DX003 (ip), vehicle: Klucel (hydroxypropylcellulose) (HPC)
[15] = dose: 200.0 mg/kg/injection, schedule: Q04DX003 (ip), vehicle: saline

**Q.** With CCOC(=O)CCc1ccc(N=NN(C)C)cc1 as the compound, how does the T/C (dose: 83.0 mg/kg/injection, schedule: Q01DX009 (ip), vehicle: saline) read?
**A.** 125 % of control

**Q.** For CCn1c[n+](-c2ccccc2)cn1, which survivor count [1] is on record?
**A.** 1 of 6

**Q.** And the survivor count [2]?
**A.** 0 of 6

**Q.** How did the survivor count (dose: 400.0 mg/kg/injection, schedule: Q04DX003 (ip), vehicle: acetone) turn out when S=C(NNC(=S)Nc1ccc(Cl)cc1)NNc1ccccc1 was run?
**A.** 2 of 6

**Q.** With CCc1ccc(C)[n+](N)c1 as the compound, how does the survivor count [1] read?
**A.** 2 of 4

**Q.** And the survivor count [2]?
**A.** 0 of 4

**Q.** What does the source list for CC(C)=NNC(=O)c1ccccc1?
**A.** survivor count (dose: 25.0 mg/kg/injection, schedule: Q04DX003 (ip), vehicle: saline with Tween-80): 6 of 6; survivor count [3]: 0 of 6; survivor count [4]: 5 of 6; survivor count [5]: 0 of 6

**Q.** Which results are given for N#Cc1ccccc1C#N?
**A.** survivor count [6]: 0 of 6; survivor count [7]: 0 of 3; survivor count [8]: 0 of 6; survivor count [4]: 0 of 3; survivor count [9]: 0 of 6; survivor count [5]: 0 of 3

**Q.** With COc1ccc(NC(=S)NNC(=S)NNc2ccccc2)cc1 as the compound, how does the survivor count [10] read?
**A.** 5 of 6

**Q.** What does the source list for NC(=O)c1cc(NC(=O)c2ccc(C(=O)Nc3cc(C(N)=O)cc(C4=NCCN4)c3)cc2)cc(C2=NCCN2)c1?
**A.** T/C (dose: 32.0 mg/kg/injection, schedule: Q01DX015 (ip), vehicle: methylcellulose (MC)): 127 % of control; survivor count (dose: 250.0 mg/kg/injection, schedule: Q01DX015 (ip), vehicle: methylcellulose (MC)): 0 of 6; survivor count (dose: 500.0 mg/kg/injection, schedule: Q01DX015 (ip), vehicle: methylcellulose (MC)): 0 of 6

**Q.** With N=C(N)SCCN as the compound, how does the survivor count (dose: 400.0 mg/kg/injection, schedule: Q01DX009 (ip), vehicle: saline) read?
**A.** 0 of 6

**Q.** And the survivor count (dose: 800.0 mg/kg/injection, schedule: Q01DX001 (ip), vehicle: saline)?
**A.** 3 of 6

**Q.** Which survivor count [11] does the source give for Cc1ccc(C)c(N=Nc2ccc(O)cc2)c1 here?
**A.** 4 of 6

**Q.** Which results are given for Cc1cc(C)c[n+](Cc2ccccc2Cl)c1?
**A.** survivor count (dose: 50.0 mg/kg/injection, schedule: Q01DX001 (ip), vehicle: saline): 0 of 6; survivor count (dose: 100.0 mg/kg/injection, schedule: Q01DX001 (ip), vehicle: saline): 1 of 6; survivor count [1]: 0 of 6; survivor count [2]: 0 of 6

**Q.** Which survivor count [12] does the source give for O=C(C[n+]1ccc(-c2ccccc2)cc1)c1ccccc1 here?
**A.** 1 of 6

**Q.** Which results are given for OCc1cc(Cl)cc(Cl)c1O?
**A.** survivor count [3]: 2 of 6; survivor count [11]: 2 of 6

**Q.** For O=P(c1ccccc1)(c1ccccc1)c1ccccc1, which survivor count [2] is on record?
**A.** 0 of 4

**Q.** How did the survivor count [1] turn out when OCC[N-]CCCN=Cc1ccccc1O.OCC[N-]CCCN=Cc1ccccc1O.[Co+2] was run?
**A.** 0 of 6

**Q.** And the survivor count [2]?
**A.** 0 of 6

**Q.** O=[N+]([O-])c1ccc(N/N=C2\C3CC(c4ccccc4)C2C(c2ccccc2)=C3c2ccccc2)c([N+](=O)[O-])c1 (stereo not given) was tested. Which survivor count (dose: 50.0 mg/kg/injection, schedule: Q01DX009 (ip), vehicle: saline with Tween-80) did it give?
**A.** 3 of 3

**Q.** And the survivor count (dose: 100.0 mg/kg/injection, schedule: Q01DX009 (ip), vehicle: saline with Tween-80)?
**A.** 3 of 3

**Q.** CC(C)=CCN(CC=C(C)C)CCC(O)(Cc1ccccc1)c1ccccc1 (stereo not given) was tested. Which survivor count [13] did it give?
**A.** 0 of 6

**Q.** CN(C)c1ccc(/C=N\NC(=O)c2ccco2)cc1 was tested. Which survivor count [6] did it give?
**A.** 4 of 4

**Q.** What does the source list for C[n+]1ccc(/C=C/c2ccc(Cl)c(Cl)c2)c2ccccc21?
**A.** survivor count (dose: 100.0 mg/kg/injection, schedule: Q04DX003 (ip), vehicle: Klucel (hydroxypropylcellulose) (HPC)): 0 of 6; survivor count [14]: 0 of 6; survivor count [13]: 0 of 6

**Q.** What does the source list for O=[N+]([O-])c1cc(Cl)cc2c1-c1c(Cl)cc(Cl)cc1/C2=N/O?
**A.** survivor count (dose: 100.0 mg/kg/injection, schedule: Q01DX009 (ip), vehicle: Klucel (hydroxypropylcellulose) (HPC)): 4 of 6; survivor count [14]: 6 of 6; survivor count [13]: 6 of 6

**Q.** CC(C)=CCN(CC=C(C)C)CCC(C#N)(c1cccc2ccccc12)C(C)C (stereo not given) was tested. Which survivor count (dose: 50.0 mg/kg/injection, schedule: Q01DX009 (ip), vehicle: Klucel (hydroxypropylcellulose) (HPC)) did it give?
**A.** 6 of 6

**Q.** With N#CC1=C(C#N)C(=O)NC1=O as the compound, how does the survivor count [7] read?
**A.** 6 of 6

**Q.** And the survivor count [4]?
**A.** 0 of 6

**Q.** And the survivor count [5]?
**A.** 0 of 6

**Q.** N#CCCCCCl was tested. Which survivor count (dose: 50.0 mg/kg/injection, schedule: Q04DX003 (ip), vehicle: saline) did it give?
**A.** 3 of 6

**Q.** And the survivor count (dose: 100.0 mg/kg/injection, schedule: Q04DX003 (ip), vehicle: saline)?
**A.** 4 of 6

**Q.** What about the survivor count [15] of the same compound?
**A.** 0 of 6

**Q.** And the survivor count [12]?
**A.** 0 of 6

**Q.** For CC(C)(CCCl)NCc1ccccc1, which survivor count [15] is on record?
**A.** 3 of 6

**Q.** And the survivor count [12]?
**A.** 0 of 6

**Q.** How did the survivor count (dose: 400.0 mg/kg/injection, schedule: Q01DX009 (ip), vehicle: other) turn out when CC(=O)c1cccc([N+](=O)[O-])c1 was run?
**A.** 4 of 6

**Q.** For O=C(Nc1ccc(C2=NCCN2)cc1)c1cccc(C(=O)Nc2ccc(C3=NCCN3)cc2)c1Cl, which T/C (dose: 12.5 mg/kg/injection, schedule: Q01DX Z (ip), vehicle: carboxymethylcellulose (CMC)) is on record?
**A.** 130 % of control

**Q.** What about the survivor count (dose: 50.0 mg/kg/injection, schedule: Q01DX Z (ip), vehicle: carboxymethylcellulose (CMC)) of the same compound?
**A.** 2 of 6

**Q.** What about the survivor count (dose: 75.0 mg/kg/injection, schedule: Q01DX Z (ip), vehicle: carboxymethylcellulose (CMC)) of the same compound?
**A.** 0 of 6

**Q.** And the survivor count (dose: 100.0 mg/kg/injection, schedule: Q01DX Z (ip), vehicle: carboxymethylcellulose (CMC))?
**A.** 0 of 6

**Q.** For CCN=C1N[N+]2=CCCCC2S1 (stereo not given), which T/C [15] is on record?
**A.** 127 % of control

**Q.** For O=C(COc1ccc(Cl)c(Cl)c1)Nc1ccc[n+](Cc2cccc(S(=O)(=O)F)c2)c1, which survivor count (dose: 400.0 mg/kg/injection, schedule: Q01DX001 (ip), vehicle: Klucel (hydroxypropylcellulose) (HPC)) is on record?
**A.** 3 of 6

**Q.** O=C(O)c1c(Br)c(Br)c(Br)c(Br)c1C(=O)Nc1ccc(Br)cc1 was tested. Which survivor count [10] did it give?
**A.** 0 of 6

**Q.** With CCCCn1cnc2c(=O)[nH]cnc21 as the compound, how does the survivor count (dose: 529.0 mg/kg/injection, schedule: Q01DX Z (ip), vehicle: carboxymethylcellulose (CMC)) read?
**A.** 0 of 6

**Q.** What about the survivor count (dose: 1058.0 mg/kg/injection, schedule: Q01DX Z (oral), vehicle: carboxymethylcellulose (CMC)) of the same compound?
**A.** 0 of 6

**Q.** Which survivor count (dose: 20.0 mg/kg/injection, schedule: Q01DX001 (ip), vehicle: other) does the source give for c1cc[c]([Pb]([c]2ccccc2)([c]2ccccc2)[n]2cnc3cncnc32)cc1 here?
**A.** 3 of 6

**Q.** And the survivor count (dose: 40.0 mg/kg/injection, schedule: Q01DX001 (ip), vehicle: other)?
**A.** 1 of 6

**Q.** And the survivor count (dose: 80.0 mg/kg/injection, schedule: Q01DX001 (ip), vehicle: other)?
**A.** 0 of 6

**Q.** And the survivor count [6]?
**A.** 0 of 6

**Q.** What about the survivor count [8] of the same compound?
**A.** 1 of 6

**Q.** What about the survivor count [9] of the same compound?
**A.** 1 of 6

**Q.** For CCN=C(N)SCC, which survivor count (dose: 400.0 mg/kg/injection, schedule: Q04DX002 (ip), vehicle: saline) is on record?
**A.** 0 of 3

**Q.** Which results are given for N#C/C(=C\c1cc(Cl)cc(Cl)c1O)C(/C(C#N)=C/c1cc(Cl)cc(Cl)c1O)c1ccc2c(c1)OCO2 (stereo not given)?
**A.** survivor count [7]: 6 of 6; survivor count [5]: 5 of 6

**Q.** How did the survivor count (dose: 200.0 mg/kg/injection, schedule: Q01DX009 (ip), vehicle: Klucel (hydroxypropylcellulose) (HPC)) turn out when O=c1[nH]c2ccccc2c(C(Cl)(Cl)Cl)c1Cl was run?
**A.** 3 of 3

**Q.** With O=C(/C=N/O)Nc1cc(Cl)c(Cl)cc1Cl as the compound, how does the survivor count [5] read?
**A.** 3 of 6

**Q.** O=C(O)c1cc([N+](=O)[O-])ccc1F was tested. Which survivor count (dose: 300.0 mg/kg/injection, schedule: Q01DX001 (ip), vehicle: acetone) did it give?
**A.** 3 of 6

**Q.** CCN(CC)P(=O)(N1CC1(C)C)N1CC1(C)C (stereo not given) was tested. Which T/C (dose: 300.0 mg/kg/injection, schedule: Q01DX001 (ip), vehicle: carboxymethylcellulose (CMC)) did it give?
**A.** 128 % of control

**Q.** What about the T/C [2] of the same compound?
**A.** 134 % of control

**Q.** CN(C)CCCOS(C)(=O)=O was tested. Which survivor count (dose: 400.0 mg/kg/injection, schedule: Q04DX002 (ip), vehicle: saline with Tween-80) did it give?
**A.** 1 of 3

**Q.** What does the source list for CC12CCC(CC(=O)O1)C2(C)C (stereo not given)?
**A.** survivor count (dose: 150.0 mg/kg/injection, schedule: Q01DX001 (ip), vehicle: saline): 1 of 6; survivor count (dose: 300.0 mg/kg/injection, schedule: Q01DX001 (ip), vehicle: saline): 0 of 6
